# Assay results taken from PubChem BioAssay AID445 (National Center for Advancing Translational Sciences (NCATS), 2006).
# Some of the results follow. These are further read-outs of the screen, such as a control signal, another cell line or another target. No call is given for them. Compounds called inactive in the main read-out are mostly missing here. Words in brackets tell the shape of the fitted curve; partial curves, single points and poor fits give uncertain potencies.
# Assay: IkB Signaling
# Details: ABC-DLBCL IkBa-CBG/CBR dual luciferase ratio (green luciferase fused to IkBa over red control in OCI-Ly3 lymphoma cells), 4 h
# Method in brief: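 Curves were fitted separately to fusion (green), unfused (red) and ratio luminescence, then classed by r2, magnitude and activity. Cells: OCI-Ly3, 4 h compound plus doxycycline at 37C; 10 uM MG-132 defined full response.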
# [1] = measured here: control luc red channel unless noted
smiles,measurement,setting,value
CC(=O)Nc1cccc(Oc2cc(C#N)c(C#N)cc2N2CCCCCC2)c1,AC50,[1],"15.8 µM [falling, partial curve]"
Cc1cc(C)c2c(n1)nn1c(C)c(CCC(=O)Nc3ccc(C)c(Cl)c3)c(C)nc21,AC50,[1],"3.16 µM [falling, single point]"
Cc1cn2c(=O)cc(COC(=O)c3cccc(NC(=O)C(C)Oc4ccccc4)c3)nc2s1 (stereo not drawn),AC50,[1],"20 µM [falling, partial curve]"
CC1=C(C(=O)Nc2ccc(Cl)cc2)C(c2cccs2)n2nc(SCc3cccc(Cl)c3)nc2N1 (stereo not drawn),AC50,[1],"1 µM [falling, partial curve]"
CCn1c(Oc2ccc(F)cc2F)nc2c1c(=O)n(C)c(=O)n2C,AC50,[1],"12.6 µM [falling, partial curve]"
CCc1cc2c(cc3c(=O)n(CC(=O)NCc4cccc(Cl)c4)nc(CC)n32)s1,AC50,[1],"7.94 µM [rising, partial curve]"
Cc1cc(Nc2ccc(F)cc2)n2nc(C)nc2n1,AC50,[1],"10 µM [falling, partial curve]"
COc1ccc(Nc2cc(C(=O)NCCCN(C)Cc3ccccc3)c3ccccc3n2)cc1OC,AC50,[1],"20 µM [falling, partial curve]"
Cc1nc2nc(COc3ccccc3)[nH]n2c(=O)c1Cl,AC50,[1],"0.251 µM [falling, full curve]"
COc1cccc(COC(=O)c2nn(-c3ccccc3)nc2N)c1,AC50,[1],"31.6 µM [falling, partial curve]"
COc1ccc(NC(=O)NCc2cccn2C)c(OC)c1,AC50,[1],"12.6 µM [falling, partial curve]"
CCc1ccc(NC(=O)N2CC=C(c3c[nH]c4ccccc34)CC2)cc1,AC50,[1],"2.51 µM [falling, partial curve]"
CCN(CC)c1ccc(NC(=O)CCS(=O)(=O)c2cccc3nsnc23)c(C)c1,AC50,[1],"25.1 µM [falling, single point]"
COc1ccc(C(=O)NCC(c2cccnc2)N2CCc3ccccc3C2)cc1 (stereo not drawn),AC50,[1],"39.8 µM [falling, single point]"
CCN(CC)c1ccc(C2CC(=O)Nc3cc(OC)c(OC)cc32)cc1 (stereo not drawn),AC50,[1],"20 µM [falling, partial curve]"
Cc1cccc(NC(c2cccc(Cl)c2)c2ccc3cccnc3c2O)n1 (stereo not drawn),AC50,[1],"7.94 µM [falling, partial curve]"
COc1cc(NC(=O)Nc2nnc(N3CCCCC3)s2)cc(OC)c1,AC50,[1],"6.31 µM [falling, partial curve]"
O=c1c2[nH]c3ccccc3c2nc(SCc2ccccc2F)n1-c1ccc(F)cc1,AC50,[1],"39.8 µM [falling, single point]"
Cc1ccc(CNC(=O)c2ccc3oc(=O)n(Cc4ccccc4)c3c2)cc1,AC50,[1],"31.6 µM [falling, single point]"
COc1ccc(Cl)cc1NC(=O)C1CCCN(S(=O)(=O)c2ccc3c(c2)CCCC(=O)N3)C1 (stereo not drawn),AC50,[1],"15.8 µM [falling, partial curve]"
O=C(CSc1nc2c(c(=O)[nH]1)CN(Cc1ccc3c(c1)OCO3)CC2)Nc1cc(F)ccc1F,AC50,[1],"7.94 µM [falling, full curve]"
c1ccc2[nH]c(CN3CCN(c4ncnc5c4oc4ccccc45)CC3)nc2c1,AC50,[1],"31.6 µM [falling, single point]"
COc1ccc(-c2c3c(=O)n(C)c(=O)n(C)c3c3n2-c2ccccc2NC3c2ccccc2OC)cc1 (stereo not drawn),AC50,[1],"3.98 µM [falling, full curve]"
COc1ccc2sc(NC(=O)CC(C)C)nc2c1,AC50,[1],"10 µM [falling, partial curve]"
CCCCSCCCNC(=O)c1cn(CC)c2ccc(S(=O)(=O)N3CCOCC3)cc2c1=O,AC50,[1],"20 µM [falling, single point]"
COc1ccc(S(=O)(=O)N2CCC(C(=O)Nc3ccc(Oc4ccccc4)cc3)CC2)cc1OC,AC50,[1],"7.94 µM [falling, partial curve]"
COc1ccc(C(CNC(=O)COc2cc(C)c(Cl)c(C)c2)N2CCCCC2)cc1 (stereo not drawn),AC50,[1],"1.58 µM [falling, partial curve]"
O=C(Nc1nsc(-c2ccccc2)n1)c1ccncc1,AC50,[1],"20 µM [falling, single point]"
O=C(CSc1nc(=O)n(Cc2ccncc2)c2c1CCC2)Nc1ccccc1,AC50,[1],"39.8 µM [falling, single point]"
COc1cccc(CNC(=O)CCc2c(C)c3cc4c(C)coc4cc3oc2=O)c1,AC50,[1],"25.1 µM [falling, partial curve]"
CCCN(CCC)C(=O)c1c[nH]c2ccc(S(=O)(=O)N(C)c3ccc(Cl)cc3)cc2c1=O,AC50,[1],"12.6 µM [falling, partial curve]"
CCCCOC(=O)c1ccc(NC(=O)C2(c3cccs3)CCOCC2)cc1,AC50,[1],"20 µM [falling, partial curve, poor fit]"
COc1ccc(NC(=O)CSc2nc(-c3ccccc3)cc(-c3cc(OC)c(OC)c(OC)c3)c2C#N)c(OC)c1,AC50,[1],"5.01 µM [falling, full curve]"
COc1ccccc1-c1cc(C(=O)Nc2c(C)nn(Cc3ccc(Cl)cc3)c2C)no1,AC50,[1],"3.98 µM [falling, full curve]"
O=C(NCc1ccco1)c1cc2ccc(O)cc2oc1=O,AC50,[1],"12.6 µM [falling, partial curve]"
CCCCN(CCCNC(=O)c1cc(Nc2ccc(OC)cc2OC)nc2ccccc12)Cc1ccccc1,AC50,[1],"15.8 µM [falling, partial curve]"
Cc1nc2ccccc2c2oc(C(=O)N3CCc4ccccc4C3)cc12,AC50,measured here: IkB-luc green channel,"10 µM [falling, partial curve]"
same,AC50,measured here: control luc red channel,"7.94 µM [falling, partial curve]"
COc1ccccc1N1CCN(S(=O)(=O)CCNC(=O)c2cc(=O)c3ccccc3o2)CC1,AC50,[1],"10 µM [falling, partial curve]"
COc1ccc(C(=O)c2cn(Cc3ccc(F)cc3)c3c(F)cc(F)cc3c2=O)cc1,AC50,[1],"39.8 µM [falling, single point]"
O=C(C1COc2cc(S(=O)(=O)Nc3ccc(Cl)cc3)ccc2O1)N1CCCC1 (stereo not drawn),AC50,[1],"5.01 µM [falling, single point]"
COc1cccc(C2C(C#N)=C(N)OC3=C2C(=O)CC(c2ccco2)C3)c1OCc1ccc(F)cc1 (stereo not drawn),AC50,[1],"5.01 µM [falling, partial curve]"
COc1ccccc1N1CCN(C(=O)CSc2nc(C)c(Cc3ccccc3)c(=O)[nH]2)CC1,AC50,[1],"25.1 µM [falling, partial curve]"
CCc1ccccc1N(C)C(=O)c1cc2c(s1)-c1c(C)cccc1OC2,AC50,[1],"1.58 µM [falling, full curve]"
COc1ccc(CCNc2nc(-c3sc(N)nc3C)cs2)cc1OC,AC50,[1],"15.8 µM [falling, partial curve]"
COc1cc(C2C(C(=O)Nc3ccccc3)=C(C)Nc3nc(SCC(=O)c4ccc(C)cc4)nn32)ccc1O (stereo not drawn),AC50,[1],"0.0631 µM [falling, full curve, poor fit]"
O=C(CSc1nnnn1-c1ccc2c(c1)CCC2)Nc1ccc2c(c1)OCCO2,AC50,[1],"15.8 µM [falling, partial curve]"
CC(C)NS(=O)(=O)c1ccc(OCC(=O)N2CCN(c3cccc(Cl)c3)CC2)cc1,AC50,[1],"39.8 µM [falling, single point]"
CCc1ccc(S(=O)(=O)c2nnn3c2nc(N2CCN(CC)CC2)c2sccc23)cc1,AC50,[1],"39.8 µM [falling, single point]"
CCOC(=O)c1ccc(N2C(=O)c3n[nH]c(-c4ccco4)c3C2c2cccc(F)c2)cc1 (stereo not drawn),AC50,[1],"20 µM [falling, partial curve]"
CCC(=O)N1CCc2cc(S(=O)(=O)NC(Cc3ccccc3)C(=O)Nc3ccc(Cl)cc3)ccc21 (stereo not drawn),AC50,[1],"3.16 µM [falling, full curve]"
O=C(CSc1nc(-c2ccccc2)[nH]c1-c1ccc(F)cc1)NC1CCCC1,AC50,[1],"15.8 µM [falling, partial curve]"
COc1ccc(CCNC(=O)c2cc3cccc4c3n2CC(C)S4)c(OC)c1OC (stereo not drawn),AC50,[1],"15.8 µM [falling, partial curve]"
CCCC(=O)Nc1c(C(=O)N2CCN(c3ccccc3)CC2)oc2ccccc12,AC50,[1],"15.8 µM [falling, partial curve]"
CCc1ccccc1NC(=O)C1=CC(c2ccc3c(c2)OCO3)=NS(=O)(=O)N1C,AC50,[1],"39.8 µM [falling, single point]"
COc1ccccc1C(=O)CC1(O)C(=O)N(CC(N)=O)c2ccccc21 (stereo not drawn),AC50,[1],"7.94 µM [rising, partial curve, poor fit]"
CC(C)(C)c1ccc(C(=O)Nc2ccc3nc(SCC(=O)N4CCCC4)sc3c2)cc1,AC50,[1],"3.98 µM [falling, full curve]"
O=C(CN1C(=O)COc2ccc(S(=O)(=O)N3CCCCCC3)cc21)N1CCN(c2cccc(Cl)c2)CC1,AC50,[1],"12.6 µM [falling, partial curve]"
O=C(CSc1nnc(Cn2c(=O)sc3ccccc32)n1-c1ccccc1)Nc1nccs1,AC50,[1],"10 µM [falling, partial curve]"
Cc1cccc(N2CCN(C(=O)CCNS(=O)(=O)c3ccc4c(c3)CCN4C(=O)C3CC3)CC2C)c1 (stereo not drawn),AC50,[1],"39.8 µM [falling, partial curve]"
Cc1cccc(C(=O)Nc2nc3c(s2)CCCC3)c1,AC50,[1],"3.16 µM [falling, partial curve]"
c1ccc(CNc2ncnc3[nH]ncc23)cc1,AC50,[1],"3.16 µM [rising, single point]"
CSc1ccc(CCNC(=O)c2ccc3c(c2)nc2n3CCC(C)C2)cc1 (stereo not drawn),AC50,[1],"2.51 µM [falling, partial curve, poor fit]"

# Shown with bars between the fields: part of the list above.
smiles | measurement | setting | value
Cc1nc2nc(COc3ccccc3)[nH]n2c(=O)c1Cl | AC50 | [1] | 0.251 µM [falling, full curve]
COc1cccc(COC(=O)c2nn(-c3ccccc3)nc2N)c1 | AC50 | [1] | 31.6 µM [falling, partial curve]

# 2 entries from above, with bars between the fields:
smiles | measurement | setting | value
CCc1ccc(S(=O)(=O)c2nnn3c2nc(N2CCN(CC)CC2)c2sccc23)cc1 | AC50 | [1] | 39.8 µM [falling, single point]
CCOC(=O)c1ccc(N2C(=O)c3n[nH]c(-c4ccco4)c3C2c2cccc(F)c2)cc1 (stereo not drawn) | AC50 | [1] | 20 µM [falling, partial curve]
